The record followed here is article PMC12040169 (PLOS Biology, 2025).

SMILES strings stand for the structures. The list shows a part of the results.

The test system of this experiment is T1, CTL2-GFP (C. trachomatis L2/434/Bu, GFP-expressing).
T1 construct: L2/434/Bu, GFP-expressing
Further details: species or system HeLa; Intracellular C. trachomatis growth in HeLa cells, bulk GFP fluorescence relative to DMSO. The following applies: bulk GFP, single well; 28.5 h, 10 µM; inhibitor.
Consider `O=C(NCCO)C1(Cc2ccc(-c3ccccc3)cc2)CCNC1` (stereo not shown) [CBK283043], for which the “% of control remaining” value came out at 109.227%.
The result for `COc1ccc(CNC2CCCc3ccccc32)c(OC)c1C` (stereo not shown) [CBK025778G] reads 138.443%.
The result for `O=C(CCn1cnc2ccccc2c1=O)Nc1ccc(S(=O)(=O)N2CCOCC2)cc1` [CBK267645] reads 120.077%.
The result for `Cc1ccccc1C(=O)Nc1ccc(F)c(F)c1` [CBK058249] reads 113.751%; that for `CSc1nccc(N2CCC(NCCCn3ccnn3)CC2)n1` [CBK307076], 120.375%; that for `CC(C)n1c(NCc2ccccc2)nc2c1c(=O)n(C)c(=O)n2C` [CBK140094], 90.7654%.
Take `Cc1ccc2c(c1)cc(C(=O)N1CCOC(C(=O)N3CCc4ccccc4C3)C1)n2C` (stereo not shown) [CBK286035]: the “% of control remaining” value is listed as 117.844%.
The result for `O=C(O)COCC(=O)N1CCN(c2ccccc2Cl)CC1` [CBK268155] reads 102.021%; that for `Cc1nn(-c2ccccc2)c(O)c1Cc1c(Cl)cccc1Cl` [CBK067760], 68.7441%; that for `C=C[C@H]1C[N@@]2CC[C@H]1C[C@@H]2CNS(=O)(=O)c1cccc2cccnc12` [CBK288751], 145.431%.
With `CN1CCC(=NNC(=O)CN(c2cccc(Cl)c2)S(=O)(=O)c2ccccc2)CC1` [CBK262489], the “% of control remaining” value turned out to be 133.041%.
The result for `O=C(CSc1ccc2nnc(-c3ccc(F)cc3)n2n1)N1CCOCC1` [CBK287521] reads 144.318%; that for `COc1ccc(C(NC(=O)c2cn3ccsc3n2)[C@H]2C[C@H](O)C2)cn1` (stereo partly shown) [CBK306744], 84.5185%; that for `CCC(SC1=NCCS1)C(=O)Nc1ccc(NC(C)=O)cc1` (stereo not shown) [CBK266199], 149.855%.
In the case of `Cc1cccc(NC(=O)CSc2ncnc3sc4c(c23)CCC(C)C4)c1` (stereo not shown) [CBK265738], the “% of control remaining” value is given as 118.895%.
Turning to `CCN(C(=O)Cc1cc(OC)ccc1Br)c1cccnc1` [CBK305318], the “% of control remaining” value came to 161.066%.
`Cc1nnc(SCc2cc(=O)[nH]c(Nc3nc(C)c4cccc(C)c4n3)n2)s1` [CBK266740]: the “% of control remaining” value came to 119.045%.
Take `O=C(c1cc(F)c(F)cc1F)N1CCC2(CCCN(Cc3ccc(Cl)c(Cl)c3)C2)C1` (stereo not shown) [CBK131990]: the “% of control remaining” value worked out at 116.718%.
The result for `CCC1CCCCN1C(=O)c1ccccc1OC` (stereo not shown) [CBK083205] reads 112.315%; that for `O=C(c1nc2ccccc2[nH]1)N1CCC(F)CC1` [CBK200278], 119.851%.
The result for `S=C(NCC1CCN(C(=S)NC2CCCCC2)CC1)NC1CCCCC1` [CBK004987] reads 156.179%.
For the molecule `CCCCN(C)CCNC(=O)c1ccc2c(c1)NC(=O)C(N1CCCCC1)S2` (stereo not shown) [CBK071799], the “% of control remaining” value turned out to be 117.248%.
The result for `Cc1ccc(NC(=O)C(=O)NCCCn2ccnc2)cc1Cl` [CBK264238] reads 127.078%; that for `O=C(Nc1ccc2oc(-c3cccnc3)nc2c1)c1ccc(-c2ccccc2)cc1` [CBK264035], 131.12%.
The result for `FC(F)(F)Oc1ccc(CNc2nccnc2-c2cccs2)cc1` [CBK036806] reads 156.067%.
With `CCn1cc(C(=O)NN)c(=O)c2cc(F)c(N3CCCC3)cc21` [CBK307146], the “% of control remaining” value was 135.755%.
With `O=C(CCn1c(-c2ccccn2)cc2cccnc21)NC1CCCC1` [CBK284965], the “% of control remaining” value came out at 111.383%.
The result for `OC(CN(c1ccccc1)c1ccccc1)Cn1cnc2ccccc21` (stereo not shown) [CBK261417] reads 108.292%; that for `Cc1nc2ccc(C(=O)N3CCN(c4ccccc4)CC3)cn2c1N(C)C(=O)c1cccs1` [CBK146544], 104.437%.
As for `CCC(C)(C)c1ccc(S(=O)(=O)Nc2cc(Cl)ccc2O)cc1` [CBK045243], the “% of control remaining” value is recorded as 68.9477%.
For `c1ccc(CCN2CCC(Cc3ccccc3)CC2)cc1` [CBK126434], the “% of control remaining” value was 116.109%.
The result for `COCCn1c(SCc2cn3c(C)cc(C)nc3n2)nc(C)c1C` [CBK306489] reads 117.408%.
Turning to `Cn1c(SCc2nnc(-c3ccccc3)o2)nnc1C(O)c1ccccc1` (stereo not shown) [CBK269640], the “% of control remaining” value is on record as 144.124%.
The result for `O=C(CCn1c2ccccc2c2ccccc21)N1CCn2cnnc2C1` [CBK283645] reads 108.862%.
Regarding `CCN(CC)C(=O)CCn1c(-c2cccnc2C)cc2cccnc21` [CBK282147], the “% of control remaining” value stood at 121.637%.
The result for `Clc1ccc(Nc2nnc(-c3[nH]ncc3NCc3ccncc3)o2)cc1` [CBK288588] reads 119.176%.
`Cc1nc(C)n(CC(=O)N2CCc3sccc3C2c2ccco2)n1` (stereo not shown) [CBK281649]: the “% of control remaining” value turned out to be 128.767%.
The result for `Cc1ccc(-c2cncc(N(C)CCN(C)C)n2)cc1C` [CBK065990] reads 209.046%.
For the molecule `CN(C)CCN(Cc1ccncc1)Cc1cc(F)cc(F)c1` [CBK283096], the “% of control remaining” value was found to be 127.744%.
The result for `COc1ccc(-c2cccc(Nc3cc(OC)c(OC)c(OC)c3)n2)cc1OC` [CBK037634] reads 108.192%; that for `Cc1n[nH]c(=O)c2noc(C)c12` [CBK000857], 143.349%.
The result for `Cc1ccc(OCCSc2nc3ccccc3n2CC(=O)O)c(C(C)C)c1` [CBK300483] reads 146.944%.
Regarding `CN(C)S(=O)(=O)c1c(Cl)cccc1Cl` [CBK091643], the “% of control remaining” value turned out to be 137.735%.
As to `Cc1ccc(OCC(=O)NC(=S)Nc2cc(C(=O)O)ccc2C)cc1C` [CBK264955], the “% of control remaining” value is 124.128%.
The result for `Cc1nc(C(F)(F)F)ccc1NC(=O)CSCC(=O)O` [CBK056975] reads 151.903%; that for `Cc1cc(=O)oc(-c2ccccc2)c1C#N` [CBK004842], 99.8807%.
On to `CCc1cccc2c(C=C3C(=O)N(CC(=O)O)C(=O)c4ccccc43)c[nH]c12` [CBK295153], for which the “% of control remaining” value stood at 168.592%.
Turning to `COc1cccc2c3c([nH]c12)C1(CCCN(C/C=C\c2ccccc2)C1)NCC3` (stereo not shown) [CBK040138], the “% of control remaining” value turned out to be 89.7267%.
The result for `CC(C)(C)C(=O)N1CCC(c2nnc3n2CCCCC3)CC1` [CBK285311] reads 144.025%.
With `CN(C)CCN(Cc1cc2cc3c(cc2[nH]c1=O)OCO3)C(=S)Nc1ccc(F)cc1` [CBK135186], the “% of control remaining” value came to 126.653%.
The result for `O=C(Nc1ccc(OCc2ccccc2)cc1)OCC1CN(Cc2ccccc2)CCO1` (stereo not shown) [CBK074792] reads 106.679%; that for `COc1ccccc1C1CCCN1Cc1c(C)nc2ccccn12` (stereo not shown) [CBK281995], 118.191%; that for `Cc1csc2c(C3CCN(C(=O)c4ccncc4)CC3)nc(C)n12` [CBK285243], 120.601%.
The result for `CC(=O)c1ccc(-c2cc(N3CCN(C(=O)c4ccco4)CC3)ncn2)s1` [CBK036999] reads 113.959%.
Consider `Cc1cc(Cl)ccc1OCC(=O)NC(=S)Nc1cccc(-c2nc3ccccc3s2)c1` [CBK264802], for which the “% of control remaining” value is 132.497%.
As to `CN1CCC(C(=O)NC(=O)NC2CCCCC2)CC1` [CBK034825], the “% of control remaining” value came out at 105.327%.
The result for `Cc1c(S(=O)(=O)NC(C)CCCC(C)(C)O)sc2ccc(Cl)cc12` (stereo not shown) [CBK062467] reads 130.264%; that for `O=C(NCCCOc1ccccc1)N1CCN(S(=O)(=O)c2ccc(C(F)(F)F)cc2)CC1` [CBK296686], 114.09%.
For `COc1cc(OC)cc(C(=O)N2CCC3(CC2)CC(=O)c2ccc(OCCN(C)C)cc2O3)c1` [CBK169008T], the “% of control remaining” value amounted to 89.2694%.
The result for `COC(=O)Cc1c(O)nn(C)c1Cc1cccc(C(F)(F)F)c1` [CBK006608] reads 105.733%; that for `COc1ccc(CN2C(=O)CC3(C2=O)C(=O)N(Cc2ccccc2)c2ccc(F)cc23)cc1OC` (stereo not shown) [CBK075174], 99.3063%.
The result for `O=C(NC(=O)C1CCNCC1)Nc1ccc(F)cc1F` [CBK034793] reads 86.0126%; that for `O=C(O)CCC(C(=O)O)N1C(=O)/C(=C\C(Cl)=C/c2ccc([N+](=O)[O-])cc2)SC1=S` (stereo not shown) [CBK261011], 115.938%.
As to `CC(=O)NCCSc1cncc(NC(C)C)n1` [CBK105291], the “% of control remaining” value is 125.601%.
The result for `O=C(CN(c1cccc(Cl)c1)S(=O)(=O)c1ccc(Cl)cc1)NCc1ccco1` [CBK265356] reads 113.7%.
Regarding `COc1ccc([C@@]23CC[C@@H](NC(=O)Nc4ccnc5ccccc45)C[C@@H]2N(C)CC3)cc1OC` [CBK045699], the “% of control remaining” value worked out at 122.317%.
The result for `CCOC(=O)c1ccc(NC(=S)NC(=O)c2ccc(C)c(C)c2)cc1` [CBK264004] reads 100%.
The result for `CC(=O)NCCN(Cc1ccc(S(=O)(=O)N2CCOC2=O)cc1)Cc1ccoc1` [CBK024460] reads 93.8769%; that for `Cc1cc(C)n(CCCC(=O)N2CCc3ncc(Cl)cc3C2)n1` [CBK284852], 83.6532%.
On to `COc1cc(/C=N/NC(=O)CC#N)ccc1OCc1ccccc1Cl` [CBK263932], for which the “% of control remaining” value was determined as 120.991%.
For `Cc1ncsc1C(=O)N1CCCC(c2cc3cnccc3[nH]2)C1` (stereo not shown) [CBK283461], the “% of control remaining” value stood at 131.924%.
Turning to `Cc1cc(C)n(CC2CCCN2C(=O)CCCc2ccccn2)n1` (stereo not shown) [CBK305920], the “% of control remaining” value was determined as 104.153%.
Turning to `O=C(O)C(Cc1c[nH]c2ccccc12)N1Cc2ccccc2C1=O` (stereo not shown) [CBK287056], the “% of control remaining” value is 136.64%.
As to `CC(C)C(=O)NC(NC(=S)Nc1sc2c(c1C(N)=O)CCCC2)C(Cl)(Cl)Cl` (stereo not shown) [CBK261050], the “% of control remaining” value stood at 99.2705%.
`O=C(CSc1nnc(-c2ccccc2)n1C1CCCCC1)Nc1ccc(Cl)cc1Cl` [CBK267424]: the “% of control remaining” value stood at 162.673%.
The result for `CN1CCN(CCCNC(=O)N2CCN(c3ccc(F)cc3)CC2)CC1` [CBK156386] reads 115.254%; that for `CCC(CN1CCCC1)NC(=O)Cc1ccc(OC)c(C)c1` (stereo not shown) [CBK282752], 79.0096%.
With `CC1(C)COC(=O)N1C1CCN(C(=O)c2ccno2)CC1` [CBK044383], the “% of control remaining” value turned out to be 124.263%.
The result for `CC(C)(C)c1csc(NC(=O)C2CC(=O)N(C3CCCC3)C2)n1` (stereo not shown) [CBK175544] reads 92.5578%.
